Results from patent US7745401B2, “Antifungal peptides and methods of use thereof” (The Board of Regents of the University of Oklahoma, priority 2005, dated 2010).
Some of these results come from one statement about several compounds together. Where a SMILES comes first, the peptide text is derived from it. Where no end group is shown, it is not given here.

System: Candida albicans
Assay type: cell-based
Conditions: fluconazole resistant mucosal isolates A-5 and A-20
Procedure: Isolates used in this study included Candida albicans (ATCC 28367), three fluconazole sensitive mucosal isolates of C. albicans, designated A-22, A-111 and A-155, three fluconazole resistant mucosal isolates of C. albicans designated A-46, A-5, and A-20, and a blood isolate of C. albicans designated WDO. Isolates were stored frozen at −70° C. and streaked onto Sabouraud Dextrose Agar (Sigma, St. Louis, Mo.) plates and maintained on plates at 4° C., with subculturing onto new plates approximately every 10 days for the duration of the studies. Fluconazole resistance was evaluated. Three clinical isolates of C. glabrata, two clinical isolates of C. dubliniensis, and single isolate each of C. krusei, C. guilliermondii, C. parapsilosis, C. pseudotropicalis and C. tropicalis and two isolates of Saccharomyces cerevisiae were also used in this study and were maintained on Sabouraud Dextrose agar plates at 4° C. A single yeast colony was cultured overnight at 33° C. in 1% phytone peptone broth (Becton Dickinson, Sparks Md.) with 0.1% D-glucose (Sigma).
Stock solutions of all peptides were made up at concentrations of 1 mg/ml in sterile endotoxin-free water for irrigation (Baxter, Deerfield, Ill.). Subsequent dilutions were all made in tryptone saline pH 5.5 (Shafer et al., Infect Immun, 1984). […] The optical density was read and the culture adjusted to 500 blastospores/100 μl in tryptone saline pH 5.5 (Shafer et al., Infect Immun, 1984). […] The colony forming units (cfu) were counted and the fungicidal activity was expressed as percent killed and calculated according to the following equation: [(control cfu−test cfu)/control cfu]×100=% killed. […] Test cfu is determined by counting the number of colonies present after incubation in tryptone saline containing the peptide. […]
C. albicans (ATCC 28367) was used to standardize the in vitro killing assay. […] The optimum numbers of cfu per well was determined to be 500 and an incubation time of 4 hr at 37° C. between Candida and peptide was required to obtain optimal killing.

Compound	survival
CC[C@H](C)[C@H](NC(=O)[C@H](CC(C)C)NC(=O)[C@H](C)NC(=O)CNC(=O)CNC(=O)[C@H](CS)NC(=O)[C@H](Cc1ccccc1)NC(=O)[C@H](Cc1c[nH]cn1)NC(=O)[C@H](CCCNC(=N)N)NC(=O)CNC(=O)[C@H](CCC(N)=O)NC(=O)[C@@H](N)CC(N)=O)C(=O)N[C@@H](Cc1c[nH]cn1)C(=O)N[C@@H](C)C(=O)N[C@@H](CCCNC(=N)N)C(=O)N[C@@H](Cc1ccccc1)C(=O)N[C@H](C(=O)N[C@@H](CCSC)C(=O)N[C@H](C(=O)N[C@@H](C)C(=O)N[C@@H](C)C(=O)N[C@@H](CO)C(=O)N[C@@H](CS)C(=O)N[C@@H](Cc1ccccc1)C(=O)N[C@@H](CCC(N)=O)C(=O)O)[C@@H](C)O)C(C)C [CAP37(20-44)nat, NQGRHFCGGALIHARFVMTAASCFQ] (H-NQGRHFCGGALIHARFVMTAASCFQ-OH; N-terminus and C-terminus assumed)	< 5%
NQGRHFCGGALIHARFVMTAASSFQ [CAP37(20-44)ser42, NQGRHFCGGALIHARFVMTAASSFQ]	< 5%
NQGRHFSGGALIHARFVMTAASCFQ [CAP37(20-44)ser26, NQGRHFSGGALIHARFVMTAASCFQ]	< 5%
